According to publication doi:10.1101/2021.12.09.472013 (bioRxiv, 2021):
These are yes or no findings as the source states them, for the method shown. Some binding calls cover weakened binding; strength is not graded here. Blank lines part the entries; values can stand above or below the substance they belong to.

Sequences of proteins named here, by UniProt entry; tags and fusion partners are left off. A change or cut given only in a name is not applied to a line headed by its entry. Residues count along the entry.
UniProt Q5JTV8, 122-583: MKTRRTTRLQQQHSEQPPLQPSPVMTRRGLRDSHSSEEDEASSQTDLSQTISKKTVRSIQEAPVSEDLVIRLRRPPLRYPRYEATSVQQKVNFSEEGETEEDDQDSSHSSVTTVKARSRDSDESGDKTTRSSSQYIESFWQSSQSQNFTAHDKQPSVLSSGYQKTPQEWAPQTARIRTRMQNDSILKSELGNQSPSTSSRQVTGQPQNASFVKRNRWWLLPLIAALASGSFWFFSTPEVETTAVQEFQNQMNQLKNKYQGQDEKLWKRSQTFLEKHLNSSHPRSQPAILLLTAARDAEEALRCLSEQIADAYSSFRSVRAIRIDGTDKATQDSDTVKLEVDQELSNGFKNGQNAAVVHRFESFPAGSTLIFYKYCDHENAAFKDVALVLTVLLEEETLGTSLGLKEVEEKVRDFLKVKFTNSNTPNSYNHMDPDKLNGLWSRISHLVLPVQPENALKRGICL
UniProt O14656, whole entry, looked up, stated change not applied: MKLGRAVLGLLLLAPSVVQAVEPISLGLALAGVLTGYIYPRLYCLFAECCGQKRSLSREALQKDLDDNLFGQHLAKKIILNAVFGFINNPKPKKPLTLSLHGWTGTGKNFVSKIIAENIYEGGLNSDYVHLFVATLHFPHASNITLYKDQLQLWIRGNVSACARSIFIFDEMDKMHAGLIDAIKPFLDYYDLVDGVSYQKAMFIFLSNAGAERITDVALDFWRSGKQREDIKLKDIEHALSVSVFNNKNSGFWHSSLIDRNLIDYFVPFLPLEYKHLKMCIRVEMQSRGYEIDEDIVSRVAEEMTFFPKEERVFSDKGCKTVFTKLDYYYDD
UniProt O14656, 21-49: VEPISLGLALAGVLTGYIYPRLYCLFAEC

Assays:
EGFP-LAP1C^WT = EGFP-LAP1C^WT (UniProt Q5JTV8); assay: fluorescence fluctuation spectroscopy
SS-EGFP-torsinA^21-49 = SS-EGFP-torsinA^21-49 (UniProt O14656); assay: fluorescence fluctuation spectroscopy
[1] = target: SS-EGFP-torsinA^(ΔNTD, K108A) (UniProt O14656); assay: fluorescence fluctuation spectroscopy
[2] = target: SS-EGFP-torsinA^(ΔNTD, ΔE) (UniProt O14656); assay: fluorescence fluctuation spectroscopy
SS-EGFP-torsinA^C49Y = SS-EGFP-torsinA^C49Y (UniProt O14656); assay: fluorescence fluctuation spectroscopy
SS-EGFP-torsinA^E171Q = SS-EGFP-torsinA^E171Q (UniProt O14656); assay: quantitative photobleaching analysis
SS-EGFP-torsinA^K108A = SS-EGFP-torsinA^K108A (UniProt O14656); assay: quantitative photobleaching analysis
[3] = target: SS-EGFP-torsinA^ΔE302/303 (UniProt O14656); assay: quantitative photobleaching analysis

Substance: EGFP-LAP1C^WT (from UniProt Q5JTV8-4 1-462)
binding (EGFP-LAP1C^WT): no binding (tested: N ≤ 200)

Substance: SS-EGFP-torsinA^21-49 (from UniProt O14656 21-49) (domain or fragment)
binding (SS-EGFP-torsinA^21-49): no binding

Substance: SS-EGFP-torsinA^C49Y (from UniProt O14656 21-332)
binding (SS-EGFP-torsinA^C49Y): binds

Substance: SS-EGFP-torsinA^E171Q (from UniProt O14656 21-332)
binding (SS-EGFP-torsinA^E171Q): binds

Substance: SS-EGFP-torsinA^ΔE302/303 (from UniProt O14656 21-332)
binding [3]: binds

Results, then the substance that gave them:

binding [1]: binds
Substance: SS-EGFP-torsinA^(ΔNTD, K108A) (from UniProt O14656 21-332)

binding [2]: binds
Substance: SS-EGFP-torsinA^(ΔNTD, ΔE) (from UniProt O14656 21-332)

binding (SS-EGFP-torsinA^K108A): binds
Substance: SS-EGFP-torsinA^K108A (from UniProt O14656 21-332)
